{
  "source": "patent US12611470B2",
  "about": "“Chromatin-opening element for stable long term gene expression” (CZ Biohub SF, LLC, priority 2019, dated 2026)",
  "molecules": {"B1": {"name": "Candidate 6: Full length SRF-UCOE, SEQ ID NO:1; region between human SURF1 and SURF2 including first introns, chr9 (nucleic acid, listed as Homo sapiens)", "DNA": "GCACACGACCACAATTCCACTGAAAGCATTTTAATACGGAACTTGTCACTCCCAGGGAGCCTCCGCTCAGCCGGCAGTTGGTTCATTTCAATCCCCACGACAACCCTTCAAAGTGCAGGGCAGACAGCAGGTGGCTCTGCCCAGGCGCCTGGATCACAGCCCGGCCTGCAGCCCTCACCTGGGCGCGGGGAGACCCTGAGGACGCTCCTCCAGGCGGCGCTGGCCGGGGCCTGCGGACACGGACGGGCGGGCTGAGCTCCGGGACCCCTCCCCGCGCCCCGCACCCCGCACCCCGCACCCCGCACCCCGCACCCGGCGCTCACCCGTCCCAGCCCCGCCGCCCGCAGCCCCAGCTGCAACGCAGCCACCGCCGCCATCGCACCCGGCCCCGCGGGCGCTTCCGGGACGCAGGAGGCATCTGCATCCGGGGCGCCGCTGAGTCCCGCCCAGAGCCCCGCCCCCGGCTCCAGGTTCTGCGAGCGGCTTCCGCCGGGCTGCTCCGCGGGCGCGTCGGCCATGAGCGAGTTGCCGGGCGACGTGCGGGCGTTTCTGCGGGAGCACCCGAGCCTGCGGCTCCAGACGGACGCCCGCAAGGTTCGCAGCGCGGGAGGGGAACGGAGTGGCGGAGAAGGGCGCAGTTGGGATGAGGGGCTGAGGGGAGGGCAGGGGAGAGGAGAGGGCAGGGGAGAGGGGAGAGGGGAGAGCAGGAGAGAGGGGAAGGCAGGGGAGAGGGCGCGGCGGGATCAGGGGAGGAGAGGGAAGGGGGCGCGGCAGGAGGGGGCACCAGGGAGCGGAGCCCTGGCCCTCCTGACGTCCTGCCCGCCCACGCGTCCGCAGGTGAGGTGCATCCTGACAGGTCACGAGCTGCCCTGCCGCCTGCCGGAGCTCCAGGTCTACACCCGCGGCAAAAAGTACCAGCGGCTGGTCCGCGCCTCCCCGGCCTTCGACTATGCAGAGTTCGAGCCGCACATCGTGCCCAGCACCAAGAACCCGTAGGTGGTC"}},
  "tested_on": "P19 cells",
  "assay": "Standalone (intrinsic) promoter activity screen, UCOE-GFP construct lacking the Ef1a promoter",
  "assay_type": "cell-based, mouse",
  "settings": "promoterless GFP construct, after two weeks of antibiotic selection",
  "description": "A schematic representation of the expression construct in which the candidate region (UCOE) is inserted upstream of the GFP gene in the absence of any other promoter sequences as used is shown as an inlay. As positive controls, the Ef1α promoter, the 2.2 kB A2UCOE sequence, and the 1.2 kB reverse orientation sequence 3′UCOE, were cloned into the same reporter construct as the candidate sequences. The percent GFP positive in the population was monitored as a metric for gene expression by flow cytometry analysis with each passage (% GFP). Stably transfected cells were assayed for % GFP+ and median fluorescent intensity (normalized to Ef1a promoter control). Data is reported as mean±SD from biological duplicates. […]\nFluorescence data throughout silencing experiments was obtained using a MACSQuant® VYB flow cytometer (Miltenyi Biotec). EGFP was measured through the 488-nm laser and 525/50 nm band pass filter. Flow cytometry data was analyzed using the FlowJo™ single cell flow cytometry analysis software (Tree Star). […]\nAs A2UOCE dually functions as a protective regulatory element and a universal promoter, the candidate UCOEs were further screened for standalone promoter activity. […] Candidates were compared to the positive control of the EF1a promoter, which had ˜70% GFP+ cells after two weeks of antibiotic selection, showing a distinct positive population in the fluorescence histogram. […]",
  "note": "Some entries share one result that the patent states for a list of compounds.",
  "data": [
    {"molecule": "B1", "values": [
      {"measurement": "% GFP+ cells", "result": "1-3%"}
    ]}
  ]
}
